Results published in PubChem BioAssay AID1671190 (National Center for Advancing Translational Sciences (NCATS), 2021).
Among all 580,000 compounds or so, about 6,100 (1.1%) were called active. The shares of active, inactive and inconclusive entries below differ from those in the screen. Calls follow the shape of the dose curve; as a rule, active = well fitted inhibition curve with a large enough effect; inconclusive = small, poorly fitted or top-dose-only effect, or another doubt; inactive = no such curve, though single readings can be large or run the other way. A potency beside an inconclusive call is a rough fit, not a confirmed value.

Protein sequences, listed by entry. Tags and fused reporters are not part of them.
UniProt P18054, whole entry, looked up: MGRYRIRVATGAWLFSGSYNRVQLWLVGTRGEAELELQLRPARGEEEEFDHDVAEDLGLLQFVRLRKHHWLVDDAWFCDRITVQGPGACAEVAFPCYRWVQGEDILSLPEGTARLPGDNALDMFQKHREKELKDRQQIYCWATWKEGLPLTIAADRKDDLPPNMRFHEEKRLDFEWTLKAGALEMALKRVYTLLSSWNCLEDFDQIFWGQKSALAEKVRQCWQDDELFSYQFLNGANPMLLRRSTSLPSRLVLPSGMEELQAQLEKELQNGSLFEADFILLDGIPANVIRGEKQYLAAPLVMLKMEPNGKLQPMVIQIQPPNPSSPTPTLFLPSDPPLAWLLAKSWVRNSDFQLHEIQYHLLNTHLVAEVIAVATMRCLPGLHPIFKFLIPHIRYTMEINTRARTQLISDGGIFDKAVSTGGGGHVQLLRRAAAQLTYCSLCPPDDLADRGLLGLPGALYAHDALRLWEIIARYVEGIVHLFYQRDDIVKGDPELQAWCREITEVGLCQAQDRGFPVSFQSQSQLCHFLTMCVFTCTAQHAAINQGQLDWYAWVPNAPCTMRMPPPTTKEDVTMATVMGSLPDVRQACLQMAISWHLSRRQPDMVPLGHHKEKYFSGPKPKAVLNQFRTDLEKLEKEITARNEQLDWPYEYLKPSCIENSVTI

biological target: Polyunsaturated fatty acid lipoxygenase ALOX12 (Homo sapiens) (UniProt P18054); assay: Primary qHTS assay for inhibitors of human arachidonate 12S-lipoxygenase (ALOX12): Round 2; conditions: purified 12hLO, xylenol orange hydroperoxide absorbance; activity change, negative = inhibition: at 108 µM (top of the series) unless noted
Method in brief: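 Purified human 12hLO (150 nM final) in 25 mM Hepes, 0.01% Triton X-100, pH 7.0 was preincubated 15 min at room temperature with compound. Then 40 uM arachidonic acid was added, 30 min. Hydroperoxide was read by Fe-XO absorbance ratio 573/405 nm.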
% is scaled to controls: 0 for no effect and ±100 for the full control effect; potency is read from the fitted curve at half-maximal effect.

| Structure (SMILES) | Potency | activity change, negative = inhibition |
| --- | --- | --- |
| COc1ccc(-c2cc(C(C)=O)c(C)n2CCC(=O)NCc2ccc(F)cc2)cc1 | inconclusive: 100 µM [inhibitor, partial curve, poor fit] |  |
| CSc1nsc(NN)n1 | inconclusive: 79.4 µM [inhibitor, partial curve, poor fit] |  |
| N#C/C(=C\N1CCN(Cc2ccc3c(c2)OCO3)CC1)c1nc2ccccc2s1 |  | inactive: -9.21% |
| Cc1[nH][nH]c(=O)c1N=Nc1ccccc1C#N | inconclusive: 2.82 µM [inhibitor, full curve] |  |
| CCN(CC)C(=O)CSC1=C(C#N)C(c2cccs2)C=C(C)N1 (configuration not stated) | inconclusive: 70.8 µM [inhibitor, partial curve, poor fit] |  |
| Cc1oc2c(CN3CCOCC3)c(O)ccc2c(=O)c1-c1ccccc1 |  | inactive: 2.01% |
| CC(C)N1C(=O)C(NC(=O)C(=O)NCCc2c[nH]c3ccc(Cl)cc23)c2ccccc21 (configuration not stated) | inconclusive: 50.1 µM [inhibitor, single point] |  |
| COC(=O)CNC(c1ccccc1)c1cc(Br)ccc1NC(=O)CCN1CCOCC1 (configuration not stated) | active: 39.8 µM |  |
| CC[C@]12CCCN3CCc4c(n(c5ccccc45)C(=O)C1)[C@@H]32 | inconclusive: 17.8 µM [inhibitor, partial curve, poor fit] |  |
| COc1ccc(N2C(=O)C3C4C=CC(c5ccccc5)(C3C2=O)C2C(=O)N(c3ccc(OC)cc3)C(=O)C42)cc1 (configuration not stated) |  | inconclusive: -30.3% [inhibitor] |
| CC1CCN(CC2C(=O)O[C@@H]3C[C@@]4(C)CCC[C@H](C)C4=C[C@H]23)CC(C)(C)C1 (some centres not stated) | inconclusive: 39.8 µM [inhibitor, partial curve, poor fit] |  |
| CC(C)CC(=O)NC(=S)N1CCN(c2ccc([N+](=O)[O-])cc2Cl)CC1 | inconclusive: 39.8 µM [inhibitor, partial curve] |  |
| CCCN=C1N/C(=C\c2ccco2)C(=O)N1c1ccccc1 | inconclusive: 39.8 µM [inhibitor, single point] |  |
| Cc1cc(O)cc2oc(C(F)(F)F)c(-c3cnn(-c4ccccc4)c3)c(=O)c12 | inconclusive: 89.1 µM [inhibitor, partial curve, poor fit] |  |
| Cc1cccc(C(=O)NC(=S)Nc2c(C)n(C)n(-c3ccccc3)c2=O)c1 | inconclusive: 35.5 µM [inhibitor, full curve, poor fit] |  |
| COc1ccc2nc(NC(=O)c3ccc4c(c3)NC(=O)CS4)sc2c1 |  | inactive: 17.6% |
| CC1(c2ccc(Cl)cc2Cl)NC(=O)N(CC(=O)Nc2ccc3[nH]c(=O)[nH]c3c2)C1=O (configuration not stated) | inconclusive: 44.7 µM [inhibitor, partial curve, poor fit] |  |
| N/C(=N\c1nc2c(c(=O)[nH]1)CCCC2)Nc1ccccc1 |  | inactive: 0% [at 57.4 µM] |
| CC(=O)c1cccc(NS(=O)(=O)c2c(C)nc3sc(C)cn3c2=O)c1 | inconclusive: 126 µM [inhibitor, partial curve, poor fit] |  |
| COCCN1C(=O)c2n[nH]c(-c3ccco3)c2C1c1ccc(OC)cc1 (configuration not stated) | inconclusive: 35.5 µM [inhibitor, partial curve, poor fit] |  |
| S=c1nc2ccccc2c2nc(-c3ccccc3)[nH]n12 | inconclusive: 3.16 µM [inhibitor, full curve, poor fit] |  |
| CCOc1ccc(S(=O)(=O)N2CCN(c3ccccc3)CC2)cc1C(N)=O |  | inactive: -7.79% |
| COc1cc(N)ccc1NC(=O)c1cccs1 | inconclusive: 35.5 µM [inhibitor, single point] |  |

| Structure (SMILES) | Potency | activity change, negative = inhibition |
| --- | --- | --- |
| COC(=O)C1CCN(Cc2ccc3c(c2)CN(C(=O)c2cc(C)oc2C)CCO3)CC1 | inconclusive: 126 µM [inhibitor, single point] |  |
| CCN(CC)S(=O)(=O)c1ccc(N2CCCC2)c(NC(=O)C2=NN(c3ccccc3)C(=O)CC2)c1 | inconclusive: 70.8 µM [inhibitor, partial curve, poor fit] |  |
| O=C(Nc1ncn(Cc2cccc(C(F)(F)F)c2)n1)c1ccn(COc2ccc(Cl)cc2)n1 |  | inactive: 41.9% |
| CCCC(C)NC(=O)c1ccc(OC)c(S(=O)(=O)NCC)c1 (configuration not stated) |  | inactive: 23.9% |
| O=C(CSc1nccn(-c2ccc3c(c2)OCCO3)c1=O)Nc1ccccc1 |  | inactive: -3.84% |
| COc1ccc([C@H]2C[C@H](n3cc(COC(=O)c4ccccc4)nn3)[C@@H](O)CN2Cc2cccs2)cc1 | inconclusive: 141 µM [inhibitor, single point] |  |
| C/C(=N\NC(=S)NC1CCCCC1)c1ccc(O)cc1 | inconclusive: 44.7 µM [inhibitor, partial curve, poor fit] |  |
| CCOc1cccc(C(=O)NC(=S)Nc2ccc(N3CCN(CC)CC3)cc2)c1 | inconclusive: 44.7 µM [inhibitor, partial curve] |  |
| Oc1oc(-c2ccccc2)nc1C=NCc1ccccc1 | inconclusive: 141 µM [inhibitor, partial curve, poor fit] |  |
| CSCCC(C(=O)Nc1c(C)cccc1C)N1CCN(C/C=C/c2ccccc2)CC1 (configuration not stated) | inconclusive: 89.1 µM [inhibitor, single point] |  |
| CNc1cccc(-c2ccc(C(=O)N3CCOCC3)cc2)n1 |  | inconclusive: -42.1% [inhibitor] |
| CN1CCc2cccc3c2C1Cc1ccc(O)c(O)c1-3 (configuration not stated) | inconclusive: 39.8 µM [inhibitor, partial curve] |  |
| COc1ccc2c(Sc3ccc(Cl)cc3)c(C(=O)NCCCN3CCCCC3)[nH]c2c1 | inconclusive: 50.1 µM [inhibitor, partial curve, poor fit] |  |
| CC(C)CC(=O)NC(NC(=S)Nc1ccccc1)C(Cl)(Cl)Cl (configuration not stated) |  | inactive: 55.8% |
| CC(=O)Nc1sc(N/N=C\c2ccco2)nc1-c1cccs1 | inconclusive: 14.1 µM [inhibitor, full curve, poor fit] |  |
| CCC(NC(=O)C1CCCO1)c1ccccc1OC(C)C (configuration not stated) |  | inactive: 0.976% |
| N#CC(C(=O)c1cccs1)C(=O)C1CCCCC1 (configuration not stated) | inconclusive: 10 µM [inhibitor, full curve, poor fit] |  |
| COc1ccc(NC(=O)Nc2nnc(C(C)(C)C)s2)cc1 | inconclusive: 112 µM [inhibitor, partial curve, poor fit] |  |
| CCc1ccc(-c2nn(Cc3ccccc3)cc2C(=O)N2CCN(CCO)CC2)cc1 |  | inactive: 20.7% |
| CC(C)=CC(=O)Nc1ccc2c(c1)Cc1ccccc1-2 | inconclusive: 35.5 µM [inhibitor, single point] |  |
| Cc1ccc(CN(C(=O)COc2ccc(C)c(C)c2)C2CCS(=O)(=O)C2)o1 (configuration not stated) | inactive |  |
| CCOC(=O)C1=C[C@@H](C(C)(C)C)N(S(=O)(=O)c2ccc([N+](=O)[O-])cc2)[C@H]1c1cccc(Cl)c1 |  | inactive: 0.892% |
| COc1ccc(S(=O)(=O)Nc2cc(-c3cn4ccccc4n3)ccc2C)cc1 | inconclusive: 89.1 µM [inhibitor, partial curve, poor fit] |  |

| Structure (SMILES) | Potency | activity change, negative = inhibition |
| --- | --- | --- |
| CCN(CC)C(CNC(=O)c1nn(-c2ccccc2)c(=O)c2ccccc12)c1ccccc1 (configuration not stated) | inconclusive: 100 µM [inhibitor, single point] |  |
| C[C@H](CO)N1C[C@H](C)[C@@H](CN(C)Cc2ccncc2)Oc2c(NC(=O)Cc3ccccc3)cccc2C1=O |  | inactive: 1.18% |
| Cc1cccc(C)c1NC(=O)C(c1ccccc1)N1CCC(c2ccccc2)CC1 (configuration not stated) | inconclusive: 2.51 µM [inhibitor, full curve, poor fit] |  |
| CC(=O)Nc1ccc(C(=O)CSc2ncn(-c3ccccc3)n2)cc1 | inconclusive: 35.5 µM [inhibitor, partial curve, poor fit] |  |
| Cc1ccccc1CSCCNC(=S)Nc1ccccc1 | inconclusive: 44.7 µM [inhibitor, partial curve, poor fit] |  |
| CCc1nc2ccc(C(=O)N3CCN(c4ccccc4)CC3)cn2c1N(C)CCCc1ccccc1 | inconclusive: 0.316 µM [inhibitor, full curve, poor fit] |  |
| Cn1c(SCC(=O)NCC2CCCO2)ncc(C(=O)Nc2ccccc2)c1=O (configuration not stated) |  | inactive: 2.49% |
| Cc1cccc(Oc2c([N+](=O)[O-])c(=O)n(C)c3ccccc23)c1 | inconclusive: 44.7 µM [inhibitor, partial curve] |  |
| COC[C@H]1CCCN1C(=O)C[C@@H]1O[C@H](CNC(=O)NC(C)C)[C@@H](O)[C@H]1O | inconclusive: 22.4 µM [inhibitor, full curve] |  |
| CCN1CCN(C(=O)CN2CC3CC(C2)[C@H]2CCCC(=O)N2C3)CC1 (some centres not stated) |  | inactive: 35.3% |
| Cn1c(COc2ccc3c(c2)CCCC3)nnc1SCC(=O)N1CCN(c2ccccc2)CC1 | inconclusive: 89.1 µM [inhibitor, single point] |  |
| Nc1nc(SCC(=O)NCCO)nc2sc3c(c12)CCCC3 |  | inactive: -8.4% |
| C=CCn1c(SCC(=O)NCc2ccco2)nc2sc3c(c2c1=O)CCCC3 |  | inactive: 0% |
| CC(C)CC1NC(=O)N(CC(=O)Nc2ccc(OCc3ccccc3)cc2)C1=O (configuration not stated) |  | inactive: -18% |
| O=C(NC1CCN(CCCc2nc3ccccc3o2)CC1)C1CC1 |  | inactive: 15.5% |
| NC(c1csc(NC(=O)Nc2cccc(Cl)c2)n1)c1ccccc1Cl (configuration not stated) | inconclusive: 79.4 µM [inhibitor, partial curve, poor fit] |  |
| CC(C)(C)C1CCC(=NNC(=S)Nc2cccnc2)CC1 (configuration not stated) |  | inactive: -14.3% |
| CCOc1ccccc1NC(=O)C(C)Sc1nc2c(c(=O)[nH]1)CCCC2 (configuration not stated) |  | inactive: -19.4% |
| Cc1ccc(CC(=O)Nc2c(C(=O)N3CCN(c4ccccc4F)CC3)oc3ccccc23)cc1 |  | inactive: -10.5% |
| CNC(=O)c1ccc(C2Nc3cc(C(F)(F)F)ccc3S(=O)(=O)N2)cc1 (configuration not stated) | inconclusive: 56.2 µM [inhibitor, partial curve, poor fit] |  |
| Cc1c(C(=O)c2ccc(N(C)C)cc2)c2ccccn2c1CCC#N | inconclusive: 44.7 µM [inhibitor, partial curve, poor fit] |  |

Quoted from the results shown, three compounds:

| Structure (SMILES) | Potency | activity change, negative = inhibition |
| --- | --- | --- |
| CCCN=C1N/C(=C\c2ccco2)C(=O)N1c1ccccc1 | inconclusive: 39.8 µM [inhibitor, single point] |  |
| Cc1cc(O)cc2oc(C(F)(F)F)c(-c3cnn(-c4ccccc4)c3)c(=O)c12 | inconclusive: 89.1 µM [inhibitor, partial curve, poor fit] |  |
| Cc1cccc(C(=O)NC(=S)Nc2c(C)n(C)n(-c3ccccc3)c2=O)c1 | inconclusive: 35.5 µM [inhibitor, full curve, poor fit] |  |
